Test system: HCT116 cells transduced by the dL9.2-delivering lentivirus
Experiment: Fluorescence detection of FAP-expressing cells in the intraperitoneal cavity after i.v. fluorogen
Format: in vivo, nude mice
Conditions: 7×10^6 cells i.p.; fluorogen i.v. 100 μL of 4.0 μM; imaged after 20 hours

`CN(C)c1ccc(/C=C/C(=C2C=CC(=[N+](C)C)C=C2)c2ccc(N(C)C)cc2)cc1` [SKC602, (E)-N-(4-(1,3-bis(4-(dimethylamino)phenyl)allylidene)cyclohexa-2,5-dien-1-ylidene)-N-methylmethanaminium] was tested, and the “Labeling of intraperitoneally injected FAP-expressing cells after intravenous fluorogen” value was “can propagate through the body, activating at sites of interest”.
